Results as given in the supplement of paper PMC7052299.
Some of the results follow. Most values come without repeats; read them as rough.

Test system: Danio rerio embryo (th-expressing DA/NA neurons)
Assay: percentage of embryos with altered th expression (decrease or increase vs DMSO control) in brain region; higher = more embryos with altered dopaminergic/noradrenergic marker expression; extreme values may be limits of the assay
Conditions: treatment window: 24-72 hpf, fixed 96 hpf
Protocol: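 Primary screen in zebrafish embryos (AB/TL). Embryos were treated with each compound at 1, 3, 10 or 30 µM in E3/PTU with 1% DMSO from 24 to 72 hpf, washed out, and fixed at 96 hpf. th (tyrosine hydroxylase) expression was scored by whole-mount in situ hybridization per DA/NA brain region (strong decrease, decrease, normal, increase, strong increase), with 7-16 embryos per treatment and no independent replicates. The value is the percentage of scored embryos whose th expression was altered (decrease or increase) relative to DMSO controls.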

[1] = 1 µM, brain region: telencephalon
[2] = 3 µM, brain region: telencephalon
[3] = 10 µM, brain region: telencephalon
[4] = 30 µM, brain region: telencephalon

| Compound | percentage of embryos with altered th expression (1 µM, brain region: DC1) [%] | percentage of embryos with altered th expression (1 µM, brain region: DC2) [%] | percentage of embryos with altered th expression (1 µM, brain region: DC3) [%] | percentage of embryos with altered th expression (1 µM, brain region: DC 4,5,6) [%] | percentage of embryos with altered th expression (1 µM, brain region: LC) [%] | percentage of embryos with altered th expression (1 µM, brain region: MO) [%] | percentage of embryos with altered th expression (1 µM, brain region: Pretectum) [%] | percentage of embryos with altered th expression [1] [%] | percentage of embryos with altered th expression (3 µM, brain region: DC1) [%] | percentage of embryos with altered th expression (3 µM, brain region: DC2) [%] | percentage of embryos with altered th expression (3 µM, brain region: DC3) [%] | percentage of embryos with altered th expression (3 µM, brain region: DC 4,5,6) [%] | percentage of embryos with altered th expression (3 µM, brain region: LC) [%] | percentage of embryos with altered th expression (3 µM, brain region: MO) [%] | percentage of embryos with altered th expression (3 µM, brain region: Pretectum) [%] | percentage of embryos with altered th expression [2] [%] | percentage of embryos with altered th expression (10 µM, brain region: DC1) [%] | percentage of embryos with altered th expression (10 µM, brain region: DC2) [%] | percentage of embryos with altered th expression (10 µM, brain region: DC3) [%] | percentage of embryos with altered th expression (10 µM, brain region: DC 4,5,6) [%] | percentage of embryos with altered th expression (10 µM, brain region: LC) [%] | percentage of embryos with altered th expression (10 µM, brain region: MO) [%] | percentage of embryos with altered th expression (10 µM, brain region: Pretectum) [%] | percentage of embryos with altered th expression [3] [%] | percentage of embryos with altered th expression (30 µM, brain region: DC1) [%] | percentage of embryos with altered th expression (30 µM, brain region: DC2) [%] | percentage of embryos with altered th expression (30 µM, brain region: DC3) [%] | percentage of embryos with altered th expression (30 µM, brain region: DC 4,5,6) [%] | percentage of embryos with altered th expression (30 µM, brain region: LC) [%] | percentage of embryos with altered th expression (30 µM, brain region: MO) [%] | percentage of embryos with altered th expression (30 µM, brain region: Pretectum) [%] | percentage of embryos with altered th expression [4] [%] |
| --- | --- | --- | --- | --- | --- | --- | --- | --- | --- | --- | --- | --- | --- | --- | --- | --- | --- | --- | --- | --- | --- | --- | --- | --- | --- | --- | --- | --- | --- | --- | --- | --- |
| O=C(c1ccc(C(=O)N2CCC(N3CCCC3)CC2)c(Nc2ccccc2)c1)N1CCC(N2CCCC2)CC1 | 0 | 0 | 0 | 0 | 0 | 0 | 7.69 | 76.9 | 0 | 0 | 0 | 0 | 0 | 0 | 10 | 50 | 0 | 0 | 0 | 7.69 | 0 | 0 | 0 | 100 | 0 | 0 | 0 | 7.69 | 0 | 0 | 38.5 | 84.6 |
| Cc1cn(CCN2CCN(c3ccccc3-c3cc(C#N)cc(C(=O)NCCCN4CCCC4)c3)CC2)c2ccccc12 | 0 | 0 | 0 | 0 | 0 | 0 | 0 | 0 | 0 | 0 | 0 | 0 | 0 | 0 | 0 | 0 | 0 | 0 | 0 | 12.5 | 0 | 0 | 0 | 0 | 0 | 0 | 0 | 0 | 0 | 0 | 0 | 0 |
